Laboratory results published in the supplement of paper PMC6411743.
± gives the standard deviation of the averaged measurements. This is one part of the list.

What was measured:
Assay in all cases: NP40-soluble protein abundance relative to vehicle (solubility fold change) (ratio); higher = more soluble protein in presence of GTP
[1] = target: T1, UniProt Q9H993
T1 sequence (whole entry): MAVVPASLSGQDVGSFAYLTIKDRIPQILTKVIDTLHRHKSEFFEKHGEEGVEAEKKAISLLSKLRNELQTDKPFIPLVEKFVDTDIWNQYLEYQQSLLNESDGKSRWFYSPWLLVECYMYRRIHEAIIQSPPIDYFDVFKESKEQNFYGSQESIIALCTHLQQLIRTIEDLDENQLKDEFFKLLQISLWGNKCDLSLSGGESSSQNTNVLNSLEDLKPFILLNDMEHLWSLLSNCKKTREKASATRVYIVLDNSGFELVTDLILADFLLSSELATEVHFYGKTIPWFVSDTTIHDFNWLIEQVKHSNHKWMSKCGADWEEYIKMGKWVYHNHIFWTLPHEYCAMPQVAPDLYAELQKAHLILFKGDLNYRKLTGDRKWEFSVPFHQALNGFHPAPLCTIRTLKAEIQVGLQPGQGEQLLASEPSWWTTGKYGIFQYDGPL
How it was run: (§1)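 In three independent experiments, Jurkat crude lysate made by Dounce homogenisation was treated for 10 min at room temperature and then 3 min at 37 °C with eight concentrations ranging from 0.1 to 10 mM. It was then solubilised with 0.8% NP40 plus benzonase for 60 min at 4 °C and ultracentrifuged. The supernatant was TMT-labelled for LC-MS/MS, and each value is the fold change against the detergent-processed vehicle for the same replicate, using vsn-normalised intensities.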

[2] = target: T2, UniProt Q9H9P8 and related entries
T2 sequence (whole entry): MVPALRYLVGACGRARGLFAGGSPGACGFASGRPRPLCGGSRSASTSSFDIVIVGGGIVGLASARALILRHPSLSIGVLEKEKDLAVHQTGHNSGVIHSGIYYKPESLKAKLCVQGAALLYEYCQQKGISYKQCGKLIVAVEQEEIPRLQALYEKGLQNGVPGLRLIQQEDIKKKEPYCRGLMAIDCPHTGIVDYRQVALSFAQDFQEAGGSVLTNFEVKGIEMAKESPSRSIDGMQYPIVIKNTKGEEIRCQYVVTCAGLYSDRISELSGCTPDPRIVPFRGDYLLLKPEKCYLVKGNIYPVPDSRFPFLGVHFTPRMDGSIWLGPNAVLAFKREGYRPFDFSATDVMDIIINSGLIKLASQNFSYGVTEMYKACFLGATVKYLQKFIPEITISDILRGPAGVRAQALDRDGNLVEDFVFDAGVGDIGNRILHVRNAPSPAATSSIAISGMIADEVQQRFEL
How it was run: as §1

[3] = target: T3, UniProt Q9HCC0-2|Q9HCC0
T3 sequence (whole entry): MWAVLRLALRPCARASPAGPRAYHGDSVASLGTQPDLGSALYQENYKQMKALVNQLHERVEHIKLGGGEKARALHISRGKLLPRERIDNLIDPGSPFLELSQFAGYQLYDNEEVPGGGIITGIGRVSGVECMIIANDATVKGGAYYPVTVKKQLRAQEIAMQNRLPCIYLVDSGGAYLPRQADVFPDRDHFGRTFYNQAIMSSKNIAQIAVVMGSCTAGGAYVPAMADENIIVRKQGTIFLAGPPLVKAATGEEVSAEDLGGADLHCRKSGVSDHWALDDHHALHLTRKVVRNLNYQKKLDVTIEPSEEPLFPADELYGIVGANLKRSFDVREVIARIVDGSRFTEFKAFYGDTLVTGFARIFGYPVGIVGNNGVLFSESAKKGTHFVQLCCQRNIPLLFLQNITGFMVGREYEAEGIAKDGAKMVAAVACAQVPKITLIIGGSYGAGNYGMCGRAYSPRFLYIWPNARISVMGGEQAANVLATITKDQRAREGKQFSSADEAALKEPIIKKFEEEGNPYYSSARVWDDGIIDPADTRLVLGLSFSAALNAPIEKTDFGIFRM
How it was run: as §1

[4] = target: T4, UniProt Q9NPI1 and related entries
T4 sequence (whole entry): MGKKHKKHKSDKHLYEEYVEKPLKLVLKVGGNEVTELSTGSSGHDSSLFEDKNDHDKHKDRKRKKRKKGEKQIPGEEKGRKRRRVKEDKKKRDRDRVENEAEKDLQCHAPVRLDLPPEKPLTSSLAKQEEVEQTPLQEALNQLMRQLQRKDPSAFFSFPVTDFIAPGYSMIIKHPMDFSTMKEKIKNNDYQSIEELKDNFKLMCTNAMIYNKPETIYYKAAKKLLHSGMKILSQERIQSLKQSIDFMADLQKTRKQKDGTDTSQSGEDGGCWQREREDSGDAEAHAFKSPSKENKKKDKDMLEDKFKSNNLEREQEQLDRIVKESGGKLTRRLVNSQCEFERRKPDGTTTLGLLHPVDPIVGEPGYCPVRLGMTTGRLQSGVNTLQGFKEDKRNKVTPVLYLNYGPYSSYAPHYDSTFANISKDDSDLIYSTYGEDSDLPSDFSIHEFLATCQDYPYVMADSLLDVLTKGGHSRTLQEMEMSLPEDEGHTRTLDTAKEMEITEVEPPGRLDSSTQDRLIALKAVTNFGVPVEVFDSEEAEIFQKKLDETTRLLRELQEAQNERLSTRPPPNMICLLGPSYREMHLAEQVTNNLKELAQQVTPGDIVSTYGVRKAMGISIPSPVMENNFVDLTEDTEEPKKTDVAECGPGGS
How it was run: as §1

[5] = target: T5, UniProt Q9NSC5 and related entries
T5 sequence (whole entry): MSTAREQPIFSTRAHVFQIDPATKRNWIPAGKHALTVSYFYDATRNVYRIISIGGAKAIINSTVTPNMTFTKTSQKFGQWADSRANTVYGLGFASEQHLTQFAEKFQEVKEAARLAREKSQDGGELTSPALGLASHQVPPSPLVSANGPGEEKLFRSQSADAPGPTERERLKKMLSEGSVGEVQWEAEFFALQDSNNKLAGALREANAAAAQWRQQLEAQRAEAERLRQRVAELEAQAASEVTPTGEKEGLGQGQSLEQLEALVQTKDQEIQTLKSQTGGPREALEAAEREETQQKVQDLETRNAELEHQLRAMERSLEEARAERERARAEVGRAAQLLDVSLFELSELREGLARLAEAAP
How it was run: as §1

With `Nc1nc2c(ncn2[C@@H]2O[C@H](COP(=O)(O)OP(=O)(O)OP(=O)(O)O)[C@@H](O)[C@H]2O)c(=O)[nH]1` [guanosine triphosphate] the NP40-soluble protein abundance ([1]; concentration: 8mM) was 0.832 ± 0.12, the NP40-soluble protein abundance ([1]; concentration: 10mM) was 0.814 ± 0.11 and the NP40-soluble protein abundance ([2]; concentration: 0.1mM) was 1.03 ± 0.034. The NP40-soluble protein abundance ([2]; concentration: 0.5mM) was 0.9756 ± 0.0053, the NP40-soluble protein abundance ([2]; concentration: 1mM) was 0.986 ± 0.034 and the NP40-soluble protein abundance ([2]; concentration: 2mM) was 0.9648 ± 0.0067. The NP40-soluble protein abundance ([2]; concentration: 4mM) was 0.954 ± 0.05, the NP40-soluble protein abundance ([2]; concentration: 6mM) was 0.917 ± 0.02 and the NP40-soluble protein abundance ([2]; concentration: 8mM) was 0.925 ± 0.032. For the same compound, the NP40-soluble protein abundance ([2]; concentration: 10mM) was 0.895 ± 0.011, the NP40-soluble protein abundance ([3]; concentration: 0.1mM) was 1.05 ± 0.091 and the NP40-soluble protein abundance ([3]; concentration: 0.5mM) was 1.07 ± 0.065. The NP40-soluble protein abundance ([3]; concentration: 1mM) was 1.03 ± 0.087, the NP40-soluble protein abundance ([3]; concentration: 2mM) was 1.05 ± 0.064 and the NP40-soluble protein abundance ([3]; concentration: 4mM) was 1.05 ± 0.1. For the same compound, the NP40-soluble protein abundance ([3]; concentration: 6mM) was 1.05 ± 0.09, the NP40-soluble protein abundance ([3]; concentration: 8mM) was 1.05 ± 0.074 and the NP40-soluble protein abundance ([3]; concentration: 10mM) was 1.02 ± 0.081. For the same compound, the NP40-soluble protein abundance ([4]; concentration: 0.1mM) was 1.09 ± 0.029, the NP40-soluble protein abundance ([4]; concentration: 0.5mM) was 1.11 ± 0.036 and the NP40-soluble protein abundance ([4]; concentration: 1mM) was 1.22 ± 0.041. The NP40-soluble protein abundance ([4]; concentration: 2mM) was 1.36 ± 0.098, the NP40-soluble protein abundance ([4]; concentration: 4mM) was 1.4 ± 0.18 and the NP40-soluble protein abundance ([4]; concentration: 6mM) was 1.47 ± 0.2. It also gave an NP40-soluble protein abundance ([4]; concentration: 8mM) of 1.58 ± 0.32, an NP40-soluble protein abundance ([4]; concentration: 10mM) of 1.56 ± 0.28 and an NP40-soluble protein abundance ([5]; concentration: 0.1mM) of 1.04 ± 0.058. It also gave an NP40-soluble protein abundance ([5]; concentration: 0.5mM) of 1.01 ± 0.042, an NP40-soluble protein abundance ([5]; concentration: 1mM) of 1.07 ± 0.068 and an NP40-soluble protein abundance ([5]; concentration: 2mM) of 1.11 ± 0.062. It also gave an NP40-soluble protein abundance ([5]; concentration: 4mM) of 1.12 ± 0.067, an NP40-soluble protein abundance ([5]; concentration: 6mM) of 1.09 ± 0.12 and an NP40-soluble protein abundance ([5]; concentration: 8mM) of 1.04 ± 0.11. For the same compound, the NP40-soluble protein abundance ([5]; concentration: 10mM) was 1.11 ± 0.091.
